Paper doi:10.1101/2022.07.15.500247

Amino acid sequences for entries named in this document (tags omitted).
UniProt O54851: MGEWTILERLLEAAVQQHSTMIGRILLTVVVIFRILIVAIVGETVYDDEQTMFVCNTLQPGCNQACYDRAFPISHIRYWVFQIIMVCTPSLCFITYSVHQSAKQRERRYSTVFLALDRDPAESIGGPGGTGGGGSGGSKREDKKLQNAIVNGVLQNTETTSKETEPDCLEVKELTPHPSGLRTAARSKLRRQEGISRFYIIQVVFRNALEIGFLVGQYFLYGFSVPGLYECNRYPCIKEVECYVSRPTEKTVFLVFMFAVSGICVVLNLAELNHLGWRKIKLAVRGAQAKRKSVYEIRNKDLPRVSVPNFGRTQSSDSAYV

Biological target: Cx36-EGFP (UniProt O54851)
Assay: proximity labelling

Substance: Cx36-SNAP (from UniProt O54851 1-321)
- binding: binds

No constants are given. Whether binding was seen depends on the method and setting. Binding seen in cells or lysates may run through a third protein. These calls come from enrichment with a bait or labelling near it, and not all partners need be listed.
